The test system of the data set is MBP-GmDREBL (Glycine max). Nature of the data set: EMSA. The conditions noted are these: LightShift Chemiluminescent EMSA Kit (Thermo), manufacturer's instructions, pH and temperature not stated, recombinant protein, protein details: MBP (N-terminal, pMAL-c5x).

The exact form of at least one protein or probe is not confirmed. No signal at the amounts used counts as a negative.

2 sequences from publication PMC5046110 can be followed below.

“TTTGTATTAGTACTCCCGACGTTTTTATTGTGTTT (double strand) [WRI1 promoter DRE probe]”: under “100-fold unlabelled probe used as competitor in lane 3”, the binding result is on record as “binds”. On to “TTTGTATTAGTACTCTTATTGTTTTTATTGTGTTT (double strand) [WRI1 promoter mutant probe (CCGAC to TTATT)]”, for which the binding result is recorded as “no binding”.
